# PubChem BioAssay AID652272 – Drosophila RNAi Screening Center, 2013
# Purpose: 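Genes whose knock-down decreases or increases Hedgehog reporter output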 (primary screen)
# System: Drosophila clone 8 (Cl8) cells
# Reagents: long dsRNA against Drosophila genes
# Measurement: 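Plate reader light from a firefly reporter under a ptc promoter fragment that responds to Hedgehog, with Renilla light as transfection reference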
# Reading the numbers: firefly Hh reporter signal: higher = more ptc reporter light; Renilla reference signal: higher = more Renilla control light
# Rule for the call: 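Hit when the z-score averaged over two replicates is under -2 or over +3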
# Meaning of the calls: active = hit: reporter lowered or raised; inactive = not a hit
# In all, the deposit lists about 21,000 reagents; this is a random part of those that have a named target and a result. Over the whole deposit, 503 (2.4%) are marked active. 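Raw plate light values, not normalised; calls rest on replicate z-scores that were not deposited; hits include reporter decreases as well as increases.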 Reagents against one gene are numbered here. Names joined by + are all predicted targets of the reagent. Not stated in the record: the amount of reagent, the time to read-out.
target gene,reagent no.,"firefly Hh reporter signal, replicate 1","firefly Hh reporter signal, replicate 2","firefly Hh reporter signal, replicate 3","Renilla reference signal, replicate 1","Renilla reference signal, replicate 2",call
Gabat,1,97600,1.19e5,,3072,2937,inactive
RpL36,1,20856,47337,,1683,4379,active
Mic26-27,1,1.77e5,93074,,6765,3883,inactive
CG14556,1,5.95e5,1.40e5,,28693,4160,inactive
CG9825,1,82467,54363,,2204,4235,inactive
CG34224,1,1.00e5,1.76e5,,3264,8160,inactive
Rbfox1,1,7.71e5,1.73e5,1.21e5,5825,4961,inactive
Rbfox1,2,33093,67121,2.34e5,5681,930,inactive
Rbfox1,3,4598,32356,38387,3288,3657,inactive
Or42a,1,82833,67577,,1837,4976,inactive
S-Lap3,1,55092,76560,,2393,2835,inactive
prt,1,4.31e5,81075,,22939,2775,inactive
lectin-21Ca,1,83477,61273,,2217,1636,inactive
CG3419 (retired record),1,78965,78025,,1751,6262,inactive
CG3419 (retired record),2,85949,77289,,1719,5972,inactive
Ugt37A1,1,1.04e5,66796,,2773,6146,inactive
CG31997,1,4.51e5,2.36e5,,21476,4706,inactive
Rpt2,1,43849,17814,,3216,1073,active
CG10417,1,1.35e5,1.27e5,,5045,4384,inactive
Dhod,1,1.12e5,88896,,4253,3241,inactive
CG5910,1,61696,81497,,2166,2368,inactive
sigmar,1,1.27e5,95540,,4707,3332,inactive
CG5321,1,1.53e5,3.27e5,,4486,11655,inactive
Caf1-105,1,1.28e5,44036,,2691,3315,inactive
f,1,5.05e5,69252,,2930,2930,inactive
f,2,79651,1.78e5,,2544,7195,inactive
f,3,84757,1.61e5,,3024,7878,inactive
Slik,1,66892,36291,,3325,1609,inactive
CG31522,1,3.12e5,,,6464,,inactive
Ublcp1,1,1.11e5,57307,,4948,2547,inactive
sxe2,1,1.27e5,66763,,4844,3075,inactive
yip3,1,71248,66565,,1211,5507,inactive
moody,1,1.13e5,2.76e5,,4791,11616,inactive
CG30031 + deltaTry + CG30025 + 1 more,1,1.08e5,1.98e5,,4108,7795,inactive
CG14764,1,83366,2.07e5,,10162,9388,inactive
CG14764,2,89046,67141,,4723,3280,inactive
CG14764,3,67673,50059,,1629,4499,inactive
CG9861,1,62022,56044,,2985,2395,inactive
CG8034,1,78892,43245,,2038,1208,inactive
Sema2a,1,1.06e5,96080,,5354,3797,inactive
Vha13,1,4.83e5,97349,,32777,4185,inactive
CG6693,1,1.19e5,76122,,3673,2688,inactive
Lkb1,1,1.35e5,96866,,4752,3574,inactive
CG14957,1,97594,42090,,2663,360,inactive
CG4630,1,1.08e5,1.14e5,,4300,3952,inactive
CG34125,1,3.92e5,1.40e5,,19432,6691,inactive
Ir7e,1,5.13e5,73138,,3000,3000,inactive
Nup133,1,93753,88359,,4935,4240,inactive
eIF3k,1,1.40e5,1.10e5,,3716,3005,active
CG32795,1,97179,2.82e5,,2901,10697,inactive
CG32795,2,1.04e5,2.71e5,,3254,11003,inactive
mRpL51,1,58675,1.03e5,,2320,3186,inactive
deltaCOP,1,46501,26931,,2086,1639,active
lncRNA:CR32657,1,67930,2.65e5,,1948,9923,inactive
CG8372,1,82464,56416,,4179,2673,inactive
Gr64f,1,79818,60984,,2378,4242,inactive
CG13747,1,76368,58979,,2122,4918,inactive
gammaTub37C,1,80068,53632,,3980,2790,inactive
CG7142,1,5.99e5,86632,,29461,2181,inactive
Trmt61,1,4.59e5,1.21e5,,22294,3483,inactive
Sirt4,1,72093,1.44e5,,2380,5752,inactive
PK2-R1,1,89866,87426,,2823,2546,inactive
Rfk,1,1.27e5,90576,,5065,3512,inactive
Sec13,1,70690,59356,,3041,3299,inactive
Nubp1,1,65322,41959,,2610,1745,inactive
RhoGAP16F,1,91472,63325,,2038,1597,inactive
cid,1,1.20e5,3.50e5,,3049,12092,inactive
cid,2,81501,78692,,1842,5268,inactive
CG13005,1,78173,2.31e5,,2787,8932,inactive
CG7953,1,88887,47361,,4017,2226,inactive
CG13138,1,1.49e5,60377,,3760,5819,inactive
CG43182,1,4.81e5,1.65e5,,25042,3264,inactive
CG6696,1,59312,2.46e5,,1252,9504,inactive

9 consecutive records from above, quoted:
target gene,reagent no.,"firefly Hh reporter signal, replicate 1","firefly Hh reporter signal, replicate 2","firefly Hh reporter signal, replicate 3","Renilla reference signal, replicate 1","Renilla reference signal, replicate 2",call
CG8372,1,82464,56416,,4179,2673,inactive
Gr64f,1,79818,60984,,2378,4242,inactive
CG13747,1,76368,58979,,2122,4918,inactive
gammaTub37C,1,80068,53632,,3980,2790,inactive
CG7142,1,5.99e5,86632,,29461,2181,inactive
Trmt61,1,4.59e5,1.21e5,,22294,3483,inactive
Sirt4,1,72093,1.44e5,,2380,5752,inactive
PK2-R1,1,89866,87426,,2823,2546,inactive
Rfk,1,1.27e5,90576,,5065,3512,inactive
